The values below come from publication PMC12350170, “Structural basis for the synergistic assembly of the snRNA export complex” (Nature Structural & Molecular Biology, 2025).

Chains of the proteins cited; added tags and fusions are not shown. Lines headed by an entry give the natural chain unless they say otherwise; changes in a name come on top.
UniProt Q9JJT9: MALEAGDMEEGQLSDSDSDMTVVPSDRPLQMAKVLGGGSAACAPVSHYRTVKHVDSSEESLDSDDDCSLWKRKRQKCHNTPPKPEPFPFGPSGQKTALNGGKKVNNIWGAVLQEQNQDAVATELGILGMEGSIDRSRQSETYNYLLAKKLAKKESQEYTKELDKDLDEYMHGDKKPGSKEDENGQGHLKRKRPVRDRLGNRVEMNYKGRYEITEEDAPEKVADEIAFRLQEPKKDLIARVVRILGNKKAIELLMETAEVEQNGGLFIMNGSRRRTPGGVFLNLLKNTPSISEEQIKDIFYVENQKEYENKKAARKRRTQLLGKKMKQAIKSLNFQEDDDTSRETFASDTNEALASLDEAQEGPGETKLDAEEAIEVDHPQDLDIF
UniProt Q6P5F9: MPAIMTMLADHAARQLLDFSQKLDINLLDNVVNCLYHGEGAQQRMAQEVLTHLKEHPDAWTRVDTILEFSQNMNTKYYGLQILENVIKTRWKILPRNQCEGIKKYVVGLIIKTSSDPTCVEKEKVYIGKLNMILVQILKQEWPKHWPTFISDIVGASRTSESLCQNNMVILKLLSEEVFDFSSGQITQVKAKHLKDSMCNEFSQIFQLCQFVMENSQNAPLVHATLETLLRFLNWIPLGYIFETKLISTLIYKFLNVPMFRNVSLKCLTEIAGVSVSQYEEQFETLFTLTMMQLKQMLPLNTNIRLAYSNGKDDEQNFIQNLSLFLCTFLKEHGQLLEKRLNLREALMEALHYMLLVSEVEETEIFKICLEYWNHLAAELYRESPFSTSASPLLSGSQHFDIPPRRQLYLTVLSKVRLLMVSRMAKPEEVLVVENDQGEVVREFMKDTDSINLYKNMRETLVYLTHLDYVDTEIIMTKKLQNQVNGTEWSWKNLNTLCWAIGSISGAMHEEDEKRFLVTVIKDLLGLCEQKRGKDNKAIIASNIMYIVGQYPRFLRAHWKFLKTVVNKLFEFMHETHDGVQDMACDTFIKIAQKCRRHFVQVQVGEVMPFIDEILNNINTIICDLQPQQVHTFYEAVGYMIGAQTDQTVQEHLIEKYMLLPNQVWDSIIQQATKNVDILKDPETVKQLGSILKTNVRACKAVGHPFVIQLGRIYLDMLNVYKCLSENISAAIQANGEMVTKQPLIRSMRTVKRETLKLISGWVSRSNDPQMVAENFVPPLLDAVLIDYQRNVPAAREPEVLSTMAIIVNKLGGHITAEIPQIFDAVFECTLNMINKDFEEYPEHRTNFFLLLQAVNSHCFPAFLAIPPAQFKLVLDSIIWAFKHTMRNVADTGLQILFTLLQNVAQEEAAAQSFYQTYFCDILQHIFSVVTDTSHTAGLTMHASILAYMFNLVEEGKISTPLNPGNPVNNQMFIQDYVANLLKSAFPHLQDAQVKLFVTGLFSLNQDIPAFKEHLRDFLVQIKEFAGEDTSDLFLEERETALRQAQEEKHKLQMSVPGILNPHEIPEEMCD

These are yes or no findings as the source states them, for the method shown. Binding seen in cells or lysates may run through a third protein. These calls come from enrichment with a bait or labelling near it, and not all partners need be listed.

Assay [1] concerns the target MYC-mTurbo-PHAX WT (mouse) (mouse) (UniProt Q9JJT9). Nature of the assay: proximity labelling; MYC-mTurbo-PHAX variants in HA-dTAG-PHAX mES cells; dTAG^V-1 4 h to deplete endogenous PHAX, 50 µM biotin 4 h; streptavidin beads, western blot of CBP20, CBP80, Ran, CRM1, ARS2. In general terms: Immunoblotting shows a protein as a band on a membrane.
Assay [2] addresses MYC-mTurbo-PHAX E9R (mouse) (mouse) (UniProt Q9JJT9). Described as above.

For the substance “Endogenous mouse CRM1 (from UniProt Q6P5F9 1-1071)”, the binding result in assay [1] and in assay [2] was “binds” in each case.
